Measurements as given in the supplement of paper PMC10849652.
This is one part of the list.

Sequences of proteins named here, by UniProt entry; tags and fusion partners are left off. A change or cut given only in a name is not applied to a line headed by its entry.
UniProt Q15291, whole entry, looked up: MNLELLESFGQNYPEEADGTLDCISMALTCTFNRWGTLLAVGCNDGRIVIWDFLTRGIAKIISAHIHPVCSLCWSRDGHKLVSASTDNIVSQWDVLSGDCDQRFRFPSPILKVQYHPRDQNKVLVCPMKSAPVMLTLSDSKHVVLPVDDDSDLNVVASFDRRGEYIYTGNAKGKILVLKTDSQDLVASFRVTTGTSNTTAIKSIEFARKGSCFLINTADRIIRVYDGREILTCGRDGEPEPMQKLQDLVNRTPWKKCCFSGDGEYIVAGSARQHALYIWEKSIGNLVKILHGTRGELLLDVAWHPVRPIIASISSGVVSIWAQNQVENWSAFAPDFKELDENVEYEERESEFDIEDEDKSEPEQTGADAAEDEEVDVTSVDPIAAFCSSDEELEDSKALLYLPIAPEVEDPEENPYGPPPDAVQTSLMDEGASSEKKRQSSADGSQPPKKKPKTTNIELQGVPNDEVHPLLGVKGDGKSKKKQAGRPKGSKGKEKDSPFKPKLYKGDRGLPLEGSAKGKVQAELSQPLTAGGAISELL
UniProt Q15907: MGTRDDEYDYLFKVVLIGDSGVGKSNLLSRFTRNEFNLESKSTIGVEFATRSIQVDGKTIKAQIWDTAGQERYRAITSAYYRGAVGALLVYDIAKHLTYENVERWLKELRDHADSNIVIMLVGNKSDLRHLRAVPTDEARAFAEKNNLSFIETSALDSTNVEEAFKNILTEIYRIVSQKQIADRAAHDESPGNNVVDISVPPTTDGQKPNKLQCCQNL
UniProt P62820, whole entry, looked up: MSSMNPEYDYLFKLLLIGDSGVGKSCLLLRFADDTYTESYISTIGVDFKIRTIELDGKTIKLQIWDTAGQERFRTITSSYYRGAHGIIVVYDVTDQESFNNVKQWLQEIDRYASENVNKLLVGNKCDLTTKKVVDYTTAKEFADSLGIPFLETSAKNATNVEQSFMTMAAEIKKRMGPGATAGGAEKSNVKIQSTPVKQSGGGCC
UniProt P20336: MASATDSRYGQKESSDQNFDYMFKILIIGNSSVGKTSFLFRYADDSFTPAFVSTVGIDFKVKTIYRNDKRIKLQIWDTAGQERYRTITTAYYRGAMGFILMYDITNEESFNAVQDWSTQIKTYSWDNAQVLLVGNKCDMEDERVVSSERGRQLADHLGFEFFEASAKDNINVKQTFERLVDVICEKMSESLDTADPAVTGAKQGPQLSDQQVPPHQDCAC
UniProt P43487, whole entry, looked up: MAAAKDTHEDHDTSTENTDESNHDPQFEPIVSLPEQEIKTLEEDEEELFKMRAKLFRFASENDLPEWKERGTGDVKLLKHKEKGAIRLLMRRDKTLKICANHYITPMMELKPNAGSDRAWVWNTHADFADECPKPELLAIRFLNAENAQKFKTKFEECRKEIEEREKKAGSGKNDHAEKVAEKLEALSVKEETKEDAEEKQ
UniProt Q9H0U4: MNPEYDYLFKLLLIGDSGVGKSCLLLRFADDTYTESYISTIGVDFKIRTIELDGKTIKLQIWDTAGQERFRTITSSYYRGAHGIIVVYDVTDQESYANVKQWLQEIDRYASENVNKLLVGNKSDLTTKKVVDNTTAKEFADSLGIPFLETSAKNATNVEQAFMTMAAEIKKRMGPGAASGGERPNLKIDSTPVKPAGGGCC
UniProt P10114: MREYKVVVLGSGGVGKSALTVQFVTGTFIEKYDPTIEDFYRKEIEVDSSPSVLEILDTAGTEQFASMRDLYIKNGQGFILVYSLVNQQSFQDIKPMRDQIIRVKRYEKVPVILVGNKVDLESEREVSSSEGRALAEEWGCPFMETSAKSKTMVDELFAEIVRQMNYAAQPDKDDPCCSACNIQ
UniProt Q7Z6M1: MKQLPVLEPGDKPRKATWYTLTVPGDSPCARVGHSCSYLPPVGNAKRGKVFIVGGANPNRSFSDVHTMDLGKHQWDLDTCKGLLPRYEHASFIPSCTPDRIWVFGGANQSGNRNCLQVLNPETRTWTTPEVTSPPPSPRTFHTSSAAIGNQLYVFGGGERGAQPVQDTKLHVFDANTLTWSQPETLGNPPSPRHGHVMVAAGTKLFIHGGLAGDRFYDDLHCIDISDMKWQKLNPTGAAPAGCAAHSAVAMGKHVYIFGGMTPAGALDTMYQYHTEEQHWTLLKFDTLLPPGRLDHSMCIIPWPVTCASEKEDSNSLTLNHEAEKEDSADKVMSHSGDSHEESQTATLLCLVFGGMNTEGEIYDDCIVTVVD
UniProt Q9UL25: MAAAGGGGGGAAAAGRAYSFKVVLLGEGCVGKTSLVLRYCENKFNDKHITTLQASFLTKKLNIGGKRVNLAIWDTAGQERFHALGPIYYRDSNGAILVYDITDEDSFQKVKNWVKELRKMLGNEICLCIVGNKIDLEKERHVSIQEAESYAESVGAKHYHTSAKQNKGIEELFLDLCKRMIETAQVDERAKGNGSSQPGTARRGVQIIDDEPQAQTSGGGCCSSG
UniProt Q9H0H5: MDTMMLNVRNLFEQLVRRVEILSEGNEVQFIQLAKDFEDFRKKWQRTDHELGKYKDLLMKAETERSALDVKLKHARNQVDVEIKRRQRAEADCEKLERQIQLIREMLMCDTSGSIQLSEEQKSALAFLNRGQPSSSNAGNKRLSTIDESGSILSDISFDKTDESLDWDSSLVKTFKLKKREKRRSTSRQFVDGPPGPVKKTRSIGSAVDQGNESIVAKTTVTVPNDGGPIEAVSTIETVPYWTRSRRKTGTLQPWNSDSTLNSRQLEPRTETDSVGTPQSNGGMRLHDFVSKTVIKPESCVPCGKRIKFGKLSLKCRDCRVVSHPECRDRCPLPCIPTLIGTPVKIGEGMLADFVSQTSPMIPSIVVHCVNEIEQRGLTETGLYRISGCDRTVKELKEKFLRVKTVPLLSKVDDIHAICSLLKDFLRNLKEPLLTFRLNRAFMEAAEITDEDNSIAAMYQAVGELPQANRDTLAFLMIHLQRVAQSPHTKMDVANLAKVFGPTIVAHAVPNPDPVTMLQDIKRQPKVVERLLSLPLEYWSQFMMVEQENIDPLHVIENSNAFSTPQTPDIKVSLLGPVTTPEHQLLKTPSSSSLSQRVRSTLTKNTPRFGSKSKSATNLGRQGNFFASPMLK
UniProt Q5HYI8: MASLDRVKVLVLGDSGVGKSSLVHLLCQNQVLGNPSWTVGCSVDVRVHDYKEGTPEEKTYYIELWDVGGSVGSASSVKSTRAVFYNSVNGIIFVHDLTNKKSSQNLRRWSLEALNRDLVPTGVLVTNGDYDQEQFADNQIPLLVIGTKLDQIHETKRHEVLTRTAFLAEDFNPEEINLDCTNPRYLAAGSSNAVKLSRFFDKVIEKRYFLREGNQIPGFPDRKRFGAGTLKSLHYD
UniProt Q09028, whole entry, looked up: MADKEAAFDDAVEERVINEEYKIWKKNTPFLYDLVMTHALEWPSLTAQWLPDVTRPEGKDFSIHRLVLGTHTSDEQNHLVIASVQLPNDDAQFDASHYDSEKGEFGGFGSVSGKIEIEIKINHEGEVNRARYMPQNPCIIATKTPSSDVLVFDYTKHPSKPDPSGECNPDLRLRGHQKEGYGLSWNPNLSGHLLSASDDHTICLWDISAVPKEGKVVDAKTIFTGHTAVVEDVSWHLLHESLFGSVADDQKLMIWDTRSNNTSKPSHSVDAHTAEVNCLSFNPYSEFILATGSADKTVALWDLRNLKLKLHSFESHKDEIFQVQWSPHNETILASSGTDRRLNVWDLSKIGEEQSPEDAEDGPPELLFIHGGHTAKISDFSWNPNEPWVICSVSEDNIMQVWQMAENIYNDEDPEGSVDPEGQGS
UniProt Q3YEC7: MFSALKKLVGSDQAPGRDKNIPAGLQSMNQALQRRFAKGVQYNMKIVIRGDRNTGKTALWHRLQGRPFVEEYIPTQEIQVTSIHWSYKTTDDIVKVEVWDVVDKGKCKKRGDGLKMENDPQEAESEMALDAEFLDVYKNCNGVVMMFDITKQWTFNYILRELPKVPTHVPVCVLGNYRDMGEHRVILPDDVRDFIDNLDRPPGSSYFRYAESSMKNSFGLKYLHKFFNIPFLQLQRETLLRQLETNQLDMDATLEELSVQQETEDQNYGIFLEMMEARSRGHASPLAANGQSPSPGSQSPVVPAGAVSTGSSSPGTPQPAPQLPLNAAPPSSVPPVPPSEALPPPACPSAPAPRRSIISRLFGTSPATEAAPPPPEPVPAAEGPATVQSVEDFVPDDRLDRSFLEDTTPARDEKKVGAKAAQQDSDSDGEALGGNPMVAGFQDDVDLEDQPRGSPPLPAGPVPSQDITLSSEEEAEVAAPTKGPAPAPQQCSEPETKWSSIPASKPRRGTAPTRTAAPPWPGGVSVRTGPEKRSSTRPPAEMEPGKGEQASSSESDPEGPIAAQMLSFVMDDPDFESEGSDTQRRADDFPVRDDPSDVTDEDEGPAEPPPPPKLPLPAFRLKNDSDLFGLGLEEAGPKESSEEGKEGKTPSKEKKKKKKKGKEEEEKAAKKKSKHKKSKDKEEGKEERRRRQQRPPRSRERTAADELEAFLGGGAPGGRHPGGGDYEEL
UniProt Q9Y3P9: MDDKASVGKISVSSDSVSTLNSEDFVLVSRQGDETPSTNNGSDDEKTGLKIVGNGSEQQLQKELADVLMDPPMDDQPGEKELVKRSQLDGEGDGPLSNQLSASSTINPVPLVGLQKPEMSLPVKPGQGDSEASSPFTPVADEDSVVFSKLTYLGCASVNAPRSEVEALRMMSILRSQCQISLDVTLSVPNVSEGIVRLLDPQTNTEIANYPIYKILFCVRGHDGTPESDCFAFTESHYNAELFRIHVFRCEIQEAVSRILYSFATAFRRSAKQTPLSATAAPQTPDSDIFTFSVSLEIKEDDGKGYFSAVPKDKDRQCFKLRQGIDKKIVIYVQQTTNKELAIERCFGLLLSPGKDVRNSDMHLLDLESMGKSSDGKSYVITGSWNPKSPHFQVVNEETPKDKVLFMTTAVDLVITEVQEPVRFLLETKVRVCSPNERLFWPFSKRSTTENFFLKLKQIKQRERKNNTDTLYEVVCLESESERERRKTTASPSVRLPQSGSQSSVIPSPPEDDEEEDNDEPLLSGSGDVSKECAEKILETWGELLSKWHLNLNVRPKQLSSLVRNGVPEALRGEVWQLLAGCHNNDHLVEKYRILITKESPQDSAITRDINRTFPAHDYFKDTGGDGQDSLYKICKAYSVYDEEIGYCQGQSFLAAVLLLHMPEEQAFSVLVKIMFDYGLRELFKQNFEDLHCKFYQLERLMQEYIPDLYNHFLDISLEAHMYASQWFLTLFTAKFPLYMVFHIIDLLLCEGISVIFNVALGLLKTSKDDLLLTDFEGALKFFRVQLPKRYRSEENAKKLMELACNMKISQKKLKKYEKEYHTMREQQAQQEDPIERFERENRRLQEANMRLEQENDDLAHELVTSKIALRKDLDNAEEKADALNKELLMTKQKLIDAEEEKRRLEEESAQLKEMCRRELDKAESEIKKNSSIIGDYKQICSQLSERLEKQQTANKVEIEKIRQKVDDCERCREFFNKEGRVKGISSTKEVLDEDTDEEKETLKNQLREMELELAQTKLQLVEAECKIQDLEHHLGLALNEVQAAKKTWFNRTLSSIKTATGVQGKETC
UniProt P51153: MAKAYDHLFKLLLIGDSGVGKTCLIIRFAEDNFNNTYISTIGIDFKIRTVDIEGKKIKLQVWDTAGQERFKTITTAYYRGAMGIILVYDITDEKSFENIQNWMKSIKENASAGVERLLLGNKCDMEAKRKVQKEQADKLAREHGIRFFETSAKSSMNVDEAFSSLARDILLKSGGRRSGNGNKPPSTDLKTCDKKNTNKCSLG
UniProt Q9NX57: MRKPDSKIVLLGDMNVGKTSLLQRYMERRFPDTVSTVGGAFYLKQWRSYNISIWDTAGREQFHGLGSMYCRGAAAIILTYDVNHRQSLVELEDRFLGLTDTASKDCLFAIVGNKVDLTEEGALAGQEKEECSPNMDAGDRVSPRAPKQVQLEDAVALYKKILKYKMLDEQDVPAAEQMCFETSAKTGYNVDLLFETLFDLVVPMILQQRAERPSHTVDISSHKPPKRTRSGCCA
UniProt P47224: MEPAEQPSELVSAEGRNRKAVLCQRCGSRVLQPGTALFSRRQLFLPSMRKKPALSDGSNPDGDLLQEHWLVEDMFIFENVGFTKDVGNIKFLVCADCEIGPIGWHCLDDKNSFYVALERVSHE
UniProt Q9BTL3: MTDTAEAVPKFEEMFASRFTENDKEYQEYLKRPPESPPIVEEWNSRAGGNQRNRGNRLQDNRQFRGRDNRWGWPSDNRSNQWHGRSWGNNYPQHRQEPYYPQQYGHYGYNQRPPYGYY
UniProt P51159: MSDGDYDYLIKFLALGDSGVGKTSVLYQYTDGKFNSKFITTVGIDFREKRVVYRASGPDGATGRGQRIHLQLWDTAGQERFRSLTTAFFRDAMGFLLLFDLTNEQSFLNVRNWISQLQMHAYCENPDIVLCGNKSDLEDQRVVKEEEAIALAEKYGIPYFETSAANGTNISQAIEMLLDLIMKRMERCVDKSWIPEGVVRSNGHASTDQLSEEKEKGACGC
UniProt Q13636: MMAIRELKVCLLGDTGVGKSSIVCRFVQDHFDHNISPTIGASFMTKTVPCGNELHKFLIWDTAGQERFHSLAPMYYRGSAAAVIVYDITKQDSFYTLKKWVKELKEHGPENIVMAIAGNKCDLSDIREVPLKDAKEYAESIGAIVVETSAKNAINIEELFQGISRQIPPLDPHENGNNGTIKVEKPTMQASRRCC

Legend:
Assay in all cases: log2 fold change, soluble protein after heating vs DMSO (PISA); higher = thermal stabilisation; K562 cells, 10 uM, 30 min; active = over 0.2 and 3.5 SD of the protein, either way, in both replicates (recomputed)
[1] = compound: CS(=O)(=O)c1ccc(-c2cnc(N)c(C(=O)Nc3ccccc3)n2)cc1
In short: (§1)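 Thermal stability values are relative to control samples and come from duplicates. They are expressed as log2 fold changes. For measurement, K562 cells (2×10^6 cells/mL) received 10 μM compound for 30 min, and aliquots were heated for 3 min over 48°C-58°C, pooled, and extracted at 4°C in PBS with 0.5% NP-40. Soluble protein, the supernatant after 21,000xg for 90 min, was quantified by TMTpro 16plex LC-MS/MS with equalised channel sums.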

[2] = compound: C[C@@H](Oc1cc(-c2cnn(C3CCNCC3)c2)cnc1N)c1c(Cl)ccc(F)c1Cl [crizotinib]
In short: as §1

[3] = compound: C[C@@H]1COCCN1C2=NC(=NC(=C2)C3(CC3)S(=O)(=O)C)C4=C5C=CNC5=CC=C4
In short: as §1

[4] = compound: C[C@H](C1=CC=C(C=C1)C(=O)NC2=C3C=CNC3=NC=C2)N
In short: as §1

[5] = compound: C[C@H](Nc1ncnc2nc[nH]c12)c1cc2cccc(Cl)c2c(=O)n1-c1ccccc1 [duvelisib]
In short: as §1

[6] = compound: Cc1cc(Nc2cc(CN3CCOCC3)c3nc(C)c(Cc4ccc(Cl)cc4F)n3n2)n[nH]1 [gandotinib]
In short: as §1

[7] = compound: Cc1cc(Nc2cc(N3CCN(C)CC3)nc(Sc3ccc(NC(=O)C4CC4)cc3)n2)n[nH]1 [tozasertib]
In short: as §1

[8] = compound: Cc1cc(SCc2sc(-c3ccc(C(F)(F)F)cc3)nc2C)ccc1OCC(=O)O
In short: as §1

[9] = compound: Cc1ccc(-n2nc(C(C)(C)C)cc2NC(=O)Nc2ccc(OCCN3CCOCC3)c3ccccc23)cc1 [doramapimod]
In short: as §1

[10] = compound: Cc1ccc(C(=O)N(CCCN)[C@@H](c2nc3cc(Cl)ccc3c(=O)n2Cc2ccccc2)C(C)C)cc1 [ispinesib]
In short: as §1

Measured: log2 fold change

RBBP5 (UniProt Q15291)
inactive: [1] -0.049 | [2] 0.054 | [3] -0.043 | [4] 0.036 | [5] -0.021 | [6] -0.001 | [7] 0.01 | [8] -0.021 | [9] -0.031 | [10] 0

RAB11B (UniProt Q15907)
inactive: [1] 0.038 | [2] 0.062 | [3] -0.013 | [4] -0.023 | [5] 0.025 | [6] -0.005 | [7] -0.037 | [8] -0.073 | [9] -0.009 | [10] -0.018

RAB12, A0A3B3ITT1
inactive: [1] 0.014 | [2] 0.01 | [3] 0.025 | [4] -0.146 | [5] 0.01 | [6] -0.037 | [7] 0.002 | [8] -0.016 | [9] -0.012 | [10] 0.075

RAP2B (UniProt P61225)
inactive: [1] -0.027 | [2] 0.078 | [3] 0.047 | [4] -0.12 | [5] 0.052 | [6] -0.031 | [7] -0.066 | [8] -0.077 | [9] -0.021 | [10] 0.067

RAB1A (UniProt P62820)
inactive: [1] -0.03 | [2] 0.031 | [3] 0.032 | [4] -0.054 | [5] 0.018 | [6] -0.018 | [7] -0.012 | [8] -0.045 | [9] -0.04 | [10] 0.013

RAB2B (UniProt Q8WUD1)
inactive: [1] -0.024 | [2] -0.02 | [3] 0.006 | [4] -0.08 | [5] -0.035 | [6] -0.068 | [7] 0.013 | [8] 0.004 | [9] -0.009 | [10] -0.013

RAD1 (UniProt O60671)
inactive: [1] -0.004 | [2] 0.046 | [3] -0.066 | [4] -0.059 | [5] 0 | [6] -0.001 | [7] -0.028 | [8] -0.039 | [9] -0.006 | [10] 0.023

RAB3A (UniProt P20336)
inactive: [1] -0.082 | [2] 0.093 | [3] -0.064 | [4] -0.079 | [5] 0.111 | [6] -0.257 | [7] 0.057 | [8] -0.096 | [9] -0.227 | [10] 0.054

RANBP1 (UniProt P43487)
inactive: [1] 0.012 | [2] -0.007 | [3] 0.046 | [4] -0.103 | [5] -0.017 | [6] 0.024 | [7] 0.023 | [8] 0 | [9] 0.033 | [10] 0.01

RAPGEF2, A0A2R8YGD3
inactive: [1] 0.055 | [2] -0.021 | [3] -0.026 | [4] 0.002 | [5] 0.055 | [6] -0.218 | [7] -0.167 | [8] -0.231 | [9] 0.114 | [10] 0.011

RAB1B (UniProt Q9H0U4)
inactive: [1] 0.064 | [2] 0.008 | [3] 0.028 | [4] -0.022 | [5] 0.022 | [6] 0.022 | [7] -0.036 | [8] -0.061 | [9] 0.024 | [10] 0.069

RAP2A (UniProt P10114)
inactive: [1] 0.054 | [2] 0.139 | [3] 0.08 | [4] -0.18 | [5] 0.095 | [6] 0.076 | [7] -0.004 | [8] -0.047 | [9] -0.039 | [10] 0.043

RAB11A (UniProt P62491)
inactive: [1] 0.035 | [2] 0.018 | [3] -0.055 | [4] -0.091 | [5] 0.069 | [6] 0.076 | [7] -0.076 | [8] -0.094 | [9] 0.021 | [10] 0.019

RBFOX2 isoform 8 (UniProt O43251)
inactive: [1] -0.202 | [2] 0.158 | [3] -0.067 | [4] 0.076 | [5] 0 | [6] -0.116 | [7] -0.019 | [8] -0.049 | [9] 0.032 | [10] -0.123

RABEPK (UniProt Q7Z6M1)
inactive: [1] 0.033 | [2] 0.039 | [3] 0.061 | [4] -0.008 | [5] 0.003 | [6] 0.038 | [7] -0.04 | [8] -0.024 | [9] -0.006 | [10] 0.02

RAB5B (UniProt P61020)
inactive: [1] 0.002 | [2] -0.014 | [3] 0.008 | [4] -0.13 | [5] -0.01 | [6] 0.08 | [7] -0.033 | [8] -0.076 | [9] 0.003 | [10] 0.069

RAB21 (UniProt Q9UL25)
inactive: [1] 0.029 | [2] 0.033 | [3] 0.02 | [4] -0.048 | [5] 0.049 | [6] -0.067 | [7] -0.02 | [8] -0.007 | [9] -0.01 | [10] -0.023

RACGAP1 (UniProt Q9H0H5)
inactive: [1] 0.014 | [2] -0.215 | [3] 0.146 | [4] -0.067 | [5] 0.008 | [6] -0.112 | [7] -0.019 | [8] 0.056 | [9] 0.03 | [10] 0.052

RAD51C (UniProt O43502)
inactive: [1] 0.063 | [2] -0.107 | [3] -0.003 | [4] -0.007 | [5] 0.062 | [6] 0.12 | [7] -0.022 | [8] 0.065 | [9] -0.052 | [10] -0.02

RABL3 (UniProt Q5HYI8)
inactive: [1] 0.035 | [2] 0.081 | [3] 0.115 | [4] -0.082 | [5] 0.024 | [6] -0.027 | [7] -0.013 | [8] 0.01 | [9] -0.04 | [10] -0.1

RBBP4 (UniProt Q09028)
inactive: [1] 0.017 | [2] 0.056 | [3] 0.045 | [4] -0.061 | [5] 0.11 | [6] 0.004 | [7] 0.013 | [8] 0.046 | [9] -0.061 | [10] 0.109

RABL6 (UniProt Q3YEC7)
inactive: [1] 0.007 | [2] 0.02 | [3] -0.031 | [4] -0.049 | [5] 0.038 | [6] 0.056 | [7] -0.012 | [8] -0.023 | [9] -0.023 | [10] -0.019

RABGAP1 (UniProt Q9Y3P9)
inactive: [1] -0.02 | [2] -0.036 | [3] 0.069 | [4] 0.016 | [5] -0.008 | [6] -0.025 | [7] 0.023 | [8] 0.011 | [9] 0.051 | [10] -0.086

RAB8A (UniProt P61006)
inactive: [1] 0.018 | [2] 0.129 | [3] -0.012 | [4] 0.032 | [5] 0.03 | [6] 0.013 | [7] -0.013 | [8] -0.018 | [9] -0.051 | [10] -0.158

RAB13 (UniProt P51153)
inactive: [1] -0.076 | [2] 0.058 | [3] -0.06 | [4] -0.246 | [5] -0.054 | [6] -0.039 | [7] 0.008 | [8] 0.017 | [9] -0.027 | [10] 0.145

RAB20 (UniProt Q9NX57)
inactive: [1] 0.057 | [2] 0.052 | [3] 0.134 | [4] -0.043 | [5] 0.062 | [6] 0.018 | [7] -0.057 | [8] 0.022 | [9] 0.047 | [10] 0.08

RABIF (UniProt P47224)
inactive: [1] 0.086 | [2] 0.002 | [3] -0.021 | [4] -0.08 | [5] -0.019 | [6] 0.111 | [7] 0.061 | [8] -0.007 | [9] -0.129 | [10] 0.13

RAMAC (UniProt Q9BTL3)
inactive: [1] -0.099 | [2] -0.005 | [3] -0.095 | [4] 0.083 | [5] -0.031 | [6] 0.061 | [7] 0.049 | [8] -0.055 | [9] -0.004 | [10] -0.015

RAB27A (UniProt P51159)
inactive: [1] 0.056 | [2] 0.069 | [3] 0.016 | [4] -0.052 | [5] 0.03 | [6] -0.034 | [7] -0.007 | [8] -0.016 | [9] -0.027 | [10] 0.064

RAB31 (UniProt Q13636)
inactive: [1] 0.037 | [2] 0.103 | [3] 0.053 | [4] -0.037 | [5] 0.076 | [6] 0.13 | [7] 0.025 | [8] -0.018 | [9] -0.025 | [10] 0.06

Quoted from the results shown (seven entries):
RBBP4 (UniProt Q09028)
inactive: [1] 0.017 | [2] 0.056 | [3] 0.045 | [4] -0.061 | [5] 0.11 | [6] 0.004 | [7] 0.013 | [8] 0.046 | [9] -0.061 | [10] 0.109

RABL6 (UniProt Q3YEC7)
inactive: [1] 0.007 | [2] 0.02 | [3] -0.031 | [4] -0.049 | [5] 0.038 | [6] 0.056 | [7] -0.012 | [8] -0.023 | [9] -0.023 | [10] -0.019

RABGAP1 (UniProt Q9Y3P9)
inactive: [1] -0.02 | [2] -0.036 | [3] 0.069 | [4] 0.016 | [5] -0.008 | [6] -0.025 | [7] 0.023 | [8] 0.011 | [9] 0.051 | [10] -0.086

RAB8A (UniProt P61006)
inactive: [1] 0.018 | [2] 0.129 | [3] -0.012 | [4] 0.032 | [5] 0.03 | [6] 0.013 | [7] -0.013 | [8] -0.018 | [9] -0.051 | [10] -0.158

RAB13 (UniProt P51153)
inactive: [1] -0.076 | [2] 0.058 | [3] -0.06 | [4] -0.246 | [5] -0.054 | [6] -0.039 | [7] 0.008 | [8] 0.017 | [9] -0.027 | [10] 0.145

RAB20 (UniProt Q9NX57)
inactive: [1] 0.057 | [2] 0.052 | [3] 0.134 | [4] -0.043 | [5] 0.062 | [6] 0.018 | [7] -0.057 | [8] 0.022 | [9] 0.047 | [10] 0.08

RABIF (UniProt P47224)
inactive: [1] 0.086 | [2] 0.002 | [3] -0.021 | [4] -0.08 | [5] -0.019 | [6] 0.111 | [7] 0.061 | [8] -0.007 | [9] -0.129 | [10] 0.13
